Results from PubChem BioAssay AID1347075 (National Center for Advancing Translational Sciences (NCATS), 2019).
The campaign covered roughly 400,000 compounds. About 5,500 (1.4%) were called active. The shares of active, inactive and inconclusive entries below differ from those in the screen. The call rests on the fitted dose curve; in most records, active means well fitted cell-killing curve with a large enough effect; inconclusive means small, poorly fitted or top-dose-only effect, or effect the other way; inactive means flat fitted curve, though single readings scatter. Potencies of inconclusive entries are doubtful fits and often do not repeat.

Test: qHTS assay for MDR1-selective chemotherapeutics: Primary screen using the parental adenocarcinoma cell KB-3-1; further: nearly all actives have a fitted effect of over 60% in size
Conditions: KB-3-1 viability, CellTiter-Glo ATP luminescence, 72 h; activity change, negative = cytotoxic: at 46.1 µM (top of the series)
Outline: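 Screening of KB-3-1 cells (DMEM, 10% FBS, phenol-red free) ran from lowest to highest compound concentration; after 72 h at 37 °C viability was read luminescently and curves fitted.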
On the % scale 0 is the no-effect control and ±100 the full control effect; potency means the concentration at half of the fitted maximal effect.

| SMILES | activity change, negative = cytotoxic | Potency |
| --- | --- | --- |
| Cc1ccc(C(C)c2c(C)c([N+](=O)[O-])cc(C)c2[N+](=O)[O-])cn1 (stereo not given) | inactive: -14% |  |
| CC1CCCN(C(=O)C2CCN(C(=O)Nc3ccccc3)CC2)C1 (stereo not given) | inactive: -17.7% |  |
| COC(=O)NC(NC(=S)Nc1ccc([N+](=O)[O-])cc1)C(Cl)(Cl)Cl (stereo not given) |  | inconclusive: 23.1 µM [cytotoxic, single point] |
| C[n+]1ccnc2ccccc21 |  | active: 4.11 µM |
| CC(C)Oc1ccc(NC(=O)c2ccncc2)cc1 |  | inconclusive: 23.1 µM [cytotoxic, single point] |
| O=C1N=C(N2CCOCC2)SC1=Cc1ccco1 |  | inconclusive: 1.46 µM [rising, full curve, poor fit] |
| CC(/C=N/NC(=O)c1cc(-c2ccccc2)nc2ccccc12)=C\c1ccco1 |  | active: 4.11 µM |
| Fc1cccc(Cl)c1/C=N/Nc1c(Cl)cncc1Cl |  | inconclusive: 16.4 µM [cytotoxic, single point] |
| O=C(N/N=C/C(Br)=C/c1ccccc1)C(O)c1ccccc1 (stereo not given) |  | inconclusive: 23.1 µM [cytotoxic, single point] |
| O/N=C/c1cn(-c2ccccc2)nc1-c1ccccc1 | inactive: -5.4% |  |
| O=c1cnnc(Nc2ccc(Cl)c(C(F)(F)F)c2)[nH]1 |  | inconclusive: 23.1 µM [cytotoxic, partial curve, poor fit] |
| Nc1nc(N)c2cc([N+](=O)[O-])ccc2n1 |  | inconclusive: 23.1 µM [cytotoxic, single point] |
| COc1ccccc1NC(=O)N(C)C[C@@H]1Oc2ncc(Br)cc2C(=O)N([C@H](C)CO)C[C@@H]1C | inactive: 6.77% |  |
| Cc1ccc(CNC(=O)c2ccc(N3CCC4(CC3)CC(c3ccccc3)=NO4)c(NC(=O)c3ccco3)c2)cc1 | inactive: 5.57% |  |
| Cc1ccc(S(=O)(=O)N2CCCCC2)cc1NC(=O)COC(=O)Cc1cccc(C(F)(F)F)c1 |  | inconclusive: 23.1 µM [rising, single point] |
| CCCCNC(=O)c1cccc(-n2cnc3cccnc32)c1C | inactive: 1.96% |  |
| C/C(=N\NC(=S)NC(C)C)c1ccc(Cl)c([N+](=O)[O-])c1 | inactive: 5.77% |  |
| Cc1ncc([N+](=O)[O-])n1CCOC(=O)c1ccc(Br)cc1 |  | inconclusive: 18.4 µM [cytotoxic, single point] |
| Cc1nc(N2CCN(S(=O)(=O)c3ccccc3C#N)CC2)c2c(-c3cccs3)csc2n1 |  | inconclusive: 18.4 µM [cytotoxic, single point] |
| O=C(OCC(=O)N1CCN(S(=O)(=O)c2ccc(Cl)cc2)CC1)c1ccc([N+](=O)[O-])o1 |  | inconclusive: 29.1 µM [cytotoxic, single point] |
| O=C(Nc1ncccc1O)c1cccc(S(=O)(=O)N2CCCC2)c1 | inactive: 6.31% |  |
| CCNc1nc(OC)nc(Oc2ccc(=O)n(-c3ccccc3)n2)n1 | inactive: 1.4% |  |
| Cc1ccc(S(=O)(=O)c2c(C)cc(C)nc2Oc2cccc(C)c2C)cc1 |  | inconclusive: 23.1 µM [cytotoxic, single point] |

Among those listed so far, these have bromine:

| SMILES | activity change, negative = cytotoxic | Potency |
| --- | --- | --- |
| O=C(N/N=C/C(Br)=C/c1ccccc1)C(O)c1ccccc1 (stereo not given) |  | inconclusive: 23.1 µM [cytotoxic, single point] |
| COc1ccccc1NC(=O)N(C)C[C@@H]1Oc2ncc(Br)cc2C(=O)N([C@H](C)CO)C[C@@H]1C | inactive: 6.77% |  |
| Cc1ncc([N+](=O)[O-])n1CCOC(=O)c1ccc(Br)cc1 |  | inconclusive: 18.4 µM [cytotoxic, single point] |

Following part

| SMILES | activity change, negative = cytotoxic | Potency |
| --- | --- | --- |
| CCOc1ccc(OCc2cccc(C(=O)N3CCOCC3)c2)cc1 |  | inconclusive: 2.31 µM [cytotoxic, partial curve] |
| CCOc1ccc2nc(N3C(=O)C(O)=C(C(=O)c4ccco4)C3c3ccco3)sc2c1 (stereo not given) | inactive: 27.9% |  |
| Cc1ccc(C(=O)NNC(=O)C2CCN(c3ncccn3)CC2)cc1 |  | inconclusive: 0.0052 µM [rising, full curve, poor fit] |
| Cc1ccc(C)c(NC(=O)CN(C)C(=O)c2cccc(S(=O)(=O)N3CCCC3)c2)c1 | inactive: 0.367% |  |
| COc1ccccc1N1CCN(C(=O)C2=CC=CN3CCS(=O)(=O)N=C23)CC1 |  | inconclusive: 25.9 µM [cytotoxic, single point] |
| CC(=O)c1cccc(NC(=O)COC(=O)c2ccc3c(c2)OCO3)c1 | inactive: 17.1% |  |
| COc1ccc(-c2nnn(CC(=O)N3CCN(c4ccc(F)cc4)CC3)n2)cc1 | inactive: 3.31% |  |
| COc1ccc(CCNC(=O)c2cc(=O)c3cc(C)cc(C)c3o2)cc1OC |  | inconclusive: 16.4 µM [cytotoxic, partial curve, poor fit] |
| CC(C)C(NS(=O)(=O)c1ccccc1)C(=O)NC1CCCC1 (stereo not given) |  | inconclusive: 23.1 µM [cytotoxic, single point] |
| O=C(c1ccc(Cl)cc1)c1cc([N+](=O)[O-])ccc1N1CCOCC1 |  | inconclusive: 1.46 µM [cytotoxic, full curve, poor fit] |
| O=S(=O)(c1ccccc1)c1cnn(-c2ccccc2)c1-c1ccc(Cl)cc1 |  | inconclusive: 23.1 µM [cytotoxic, single point] |
| Cc1ccc(C)c(NC(=O)C(Sc2nc3ccccc3c(=O)n2CC(C)C)c2ccccc2)c1 (stereo not given) |  | inconclusive: 8.2 µM [cytotoxic, partial curve] |
| Cc1ccc(C(=O)NC(=O)CSc2nncn2C)cc1 |  | inconclusive: 0.82 µM [cytotoxic, full curve, poor fit] |
| O=C(Nc1sc2c(c1C(=O)O)CCCCC2)c1ccccc1 |  | inconclusive: 16.4 µM [cytotoxic, single point] |
| CCC(Sc1nc2ccccc2c2nc(CCn3c(C)nc4ccccc43)nn12)C(=O)Nc1ccc(F)cc1 (stereo not given) | inactive: 4% |  |
| Cc1cccc(N2CCN(C(=O)COc3ccc4c(c3)CCC4)CC2)c1C |  | inconclusive: 16.4 µM [cytotoxic, partial curve, poor fit] |
| CCCCC(=O)Nc1c(-c2cccc(OC)c2)c(=O)c2ccccc2n1C |  | inconclusive: 29.1 µM [rising, single point] |
| O=C(CNC(=O)c1nc[nH]c1C(=O)N1CCc2ccccc2C1)OCc1ccccc1 |  | inconclusive: 32.6 µM [cytotoxic, single point] |
| CCC(C)(C)n1nnnc1C(c1cc2ccc(OC)cc2[nH]c1=O)N1CCc2ccccc2C1 (stereo not given) |  | inconclusive: 20.6 µM [cytotoxic, single point] |
| Cc1cccc(OCC(=O)O/N=C(\N)Cc2cccs2)c1 | inactive: 14.8% |  |
| O=c1c2ccc(Cl)cc2nc2n1CC/C2=C\c1cccc(O)c1 |  | inconclusive: 2.91 µM [rising, partial curve, poor fit] |
| CCOC(=O)c1c(C)[nH]c(C)c1S(=O)(=O)N1CCC(C(=O)N2CCN(c3cccc(C)c3C)CC2)CC1 |  | inconclusive: 16.4 µM [cytotoxic, single point] |
